# Results published in the supplement of paper PMC4635364.
# Counter-ions that a name gives are not always drawn. The list shows a part of the results. Single values are uncertain here, since repeats match poorly.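 Cells: ReNCell VM human fetal ventral-midbrain neural progenitors, differentiated mitogen-free. Blinded raters compared doublecortin-stained (early neurons) or tyrosine hydroxylase-stained (dopaminergic neurons) images with untreated wells, where 0 means no change. After repeats and both raters were averaged, compounds scoring 2 or above became hits for retesting.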
# System: ReNCell VM
# Assay: neuronal differentiation score (DCX+ cell fraction vs untreated, manual image score) (score (-3 to 3)); higher = more neuronal differentiation
# Conditions: library: Tocriscreen; 2 uM; 2 weeks
row,SMILES,neuronal differentiation score
1,c1ccc(C(O[C@@H]2CCCN(CCc3ccc4c(c3)OCO4)C2)c2ccccc2)cc1 [Zamifenacin fumarate],inactive: 0
2,Fc1ccc(-c2nc3n(c2-c2ccncc2)CCS3)cc1,inactive: 1
3,COC(=O)C1=C(C)NC(C)=C(C(=O)NCCCN2CCC(c3ccccc3)(c3ccccc3)CC2)C1c1ccc([N+](=O)[O-])cc1 (configuration not stated),inactive: 0

# System: ReNCell VM
# Assay: dopaminergic neuron differentiation score (TH+ cell fraction vs untreated, manual image score) (score (0 to 3)); higher = more TH+ dopaminergic neuron differentiation
# Conditions: library: LOPAC; 2 uM; 4 weeks; BDNF 10 ng/ml + GDNF 10 ng/ml
row,SMILES,dopaminergic neuron differentiation score
1,CC(=O)NCCc1ccc(O)c(O)c1 [N-Acetyldopamine monohydrate],inactive: 1
2,[N-]=[N+]=Nc1ccc(C(=O)CSC[C@H](NC(=O)CC[C@H](N)C(=O)O)C(=O)NCC(=O)O)cc1 [S-(p-Azidophenacyl)glutathione],inactive: 0
3,NCCC[C@](N)(C(=O)O)C(F)F (racemic) [DL-alpha-Difluoromethylornithine hydrochloride],inactive: 0
4,CN[C@H](CC(=O)O)C(=O)O [N-Methyl-D-aspartic acid],inactive: 0

# Same assay, conditions: library: Phytochemical; 2 uM; 4 weeks; BDNF 10 ng/ml + GDNF 10 ng/ml
row,SMILES,dopaminergic neuron differentiation score
1,COc1cc(/C=C/C(=O)N2CCC=CC2=O)cc(OC)c1OC [Piperlongumine],inactive: 0
2,C[C@H]1[C@H](C)CC[C@]2(C(=O)O)CC[C@]3(C)C(=CC[C@@H]4[C@@]5(C)CC[C@H](O)C(C)(C)[C@@H]5CC[C@]43C)[C@H]12 [Ursolic acid],inactive: 0
3,COc1c2occc2cc2ccc(=O)oc12 [Methoxy-8-psoralen],inactive: 0

# Same assay, conditions: library: Prestwick; 2 uM; 4 weeks; BDNF 10 ng/ml + GDNF 10 ng/ml
row,SMILES,dopaminergic neuron differentiation score
1,N[C@@H]1CONC1=O [D-cycloserine],inactive: 0
2,NC12CC3CC(CC(C3)C1)C2 [Adamantamine fumarate],inactive: 0
3,COc1ccc2[nH]c([S+]([O-])Cc3ncc(C)c(OC)c3C)nc2n1 (configuration not stated) [Tenatoprazole],inactive: 0
4,CC(C)NC(=N)NC(=N)Nc1ccc(Cl)cc1 [Proguanil hydrochloride],inactive: 0
5,COc1cc(NC(C)CCCN)c2ncccc2c1 (configuration not stated) [Primaquine diphosphate],inactive: 0
6,Cc1cc(C)nc(NS(=O)(=O)c2ccc(N)cc2)n1 [Sulfamethazine sodium salt],inactive: 0
7,CN(C(=O)CN(CCO)CC(=O)N(C)C(C)(C)Cc1ccccc1)C(C)(C)Cc1ccccc1 [Oxethazaine],inactive: 0
8,CC(CN(C)C)CN1c2ccccc2Sc2ccccc21 (configuration not stated) [Trimeprazine tartrate],inactive: 0
9,Clc1ccc(CSC(Cn2ccnc2)c2ccc(Cl)cc2Cl)cc1 (configuration not stated) [Sulconazole nitrate],active: 3
10,COC(=O)C1=C(C#N)NC(C)=C(C(=O)OC(C)C)C1c1cccc([N+](=O)[O-])c1 (configuration not stated) [Nilvadipine],inactive: 0
11,CC(C)(C)C(=O)OCOC(=O)[C@@H]1N2C(=O)[C@@H](/N=C/N3CCCCCC3)[C@H]2SC1(C)C [Pivmecillinam hydrochloride],inactive: 0
12,CC1CCc2cc(F)cc3c(=O)c(C(=O)O)cn1c23 (configuration not stated) [Flumequine],inactive: 0

# At a glance, some entries already given.
row,SMILES,dopaminergic neuron differentiation score
2,NC12CC3CC(CC(C3)C1)C2 [Adamantamine fumarate],inactive: 0
3,COc1ccc2[nH]c([S+]([O-])Cc3ncc(C)c(OC)c3C)nc2n1 (configuration not stated) [Tenatoprazole],inactive: 0
